The supplement of paper PMC10849652
The other results are listed elsewhere or left out.

Amino acid sequences for entries named in this document (tags omitted). A change or cut given only in a name is not applied to a line headed by its entry.
UniProt Q9NRF9: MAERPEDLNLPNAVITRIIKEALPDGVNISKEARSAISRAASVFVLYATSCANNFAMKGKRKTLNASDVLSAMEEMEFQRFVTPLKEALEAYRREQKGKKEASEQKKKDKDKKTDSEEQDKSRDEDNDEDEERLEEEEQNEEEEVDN
UniProt O43447: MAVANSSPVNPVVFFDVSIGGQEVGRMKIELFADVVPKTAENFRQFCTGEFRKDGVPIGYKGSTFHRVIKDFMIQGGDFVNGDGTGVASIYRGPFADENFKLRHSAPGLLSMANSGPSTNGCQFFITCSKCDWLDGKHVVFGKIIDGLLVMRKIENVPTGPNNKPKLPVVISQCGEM
UniProt Q6UW63: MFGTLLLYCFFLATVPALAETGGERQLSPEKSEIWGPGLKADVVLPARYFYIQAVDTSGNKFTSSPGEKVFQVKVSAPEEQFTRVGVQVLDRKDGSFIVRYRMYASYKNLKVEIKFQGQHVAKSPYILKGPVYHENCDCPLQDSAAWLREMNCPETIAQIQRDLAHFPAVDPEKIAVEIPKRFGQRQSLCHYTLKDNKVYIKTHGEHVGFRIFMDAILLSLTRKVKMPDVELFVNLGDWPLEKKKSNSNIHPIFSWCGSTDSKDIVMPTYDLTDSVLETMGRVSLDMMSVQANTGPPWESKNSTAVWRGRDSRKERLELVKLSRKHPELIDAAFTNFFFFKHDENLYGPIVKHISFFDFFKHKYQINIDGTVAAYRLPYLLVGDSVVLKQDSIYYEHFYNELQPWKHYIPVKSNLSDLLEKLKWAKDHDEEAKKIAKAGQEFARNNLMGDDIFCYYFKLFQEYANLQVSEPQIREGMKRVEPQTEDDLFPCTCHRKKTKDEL
UniProt Q9NVU0: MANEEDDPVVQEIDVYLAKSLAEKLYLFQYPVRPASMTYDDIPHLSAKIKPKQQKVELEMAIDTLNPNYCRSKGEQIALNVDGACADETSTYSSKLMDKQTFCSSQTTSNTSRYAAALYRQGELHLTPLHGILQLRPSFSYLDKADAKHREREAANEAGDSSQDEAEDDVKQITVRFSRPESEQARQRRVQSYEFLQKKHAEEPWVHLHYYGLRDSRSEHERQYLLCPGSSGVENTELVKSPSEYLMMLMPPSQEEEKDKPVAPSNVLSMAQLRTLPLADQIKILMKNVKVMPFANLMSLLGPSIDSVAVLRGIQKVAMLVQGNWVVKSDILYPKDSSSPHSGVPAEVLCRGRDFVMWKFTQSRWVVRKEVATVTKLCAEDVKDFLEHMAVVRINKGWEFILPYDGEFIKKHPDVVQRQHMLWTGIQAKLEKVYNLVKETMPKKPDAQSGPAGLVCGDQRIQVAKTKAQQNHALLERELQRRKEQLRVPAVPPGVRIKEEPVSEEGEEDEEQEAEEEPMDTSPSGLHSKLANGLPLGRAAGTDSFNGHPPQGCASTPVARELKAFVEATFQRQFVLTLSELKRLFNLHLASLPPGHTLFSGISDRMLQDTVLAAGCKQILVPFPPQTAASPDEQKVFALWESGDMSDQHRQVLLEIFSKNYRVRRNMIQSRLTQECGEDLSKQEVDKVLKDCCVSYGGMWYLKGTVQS
UniProt Q9NZ53: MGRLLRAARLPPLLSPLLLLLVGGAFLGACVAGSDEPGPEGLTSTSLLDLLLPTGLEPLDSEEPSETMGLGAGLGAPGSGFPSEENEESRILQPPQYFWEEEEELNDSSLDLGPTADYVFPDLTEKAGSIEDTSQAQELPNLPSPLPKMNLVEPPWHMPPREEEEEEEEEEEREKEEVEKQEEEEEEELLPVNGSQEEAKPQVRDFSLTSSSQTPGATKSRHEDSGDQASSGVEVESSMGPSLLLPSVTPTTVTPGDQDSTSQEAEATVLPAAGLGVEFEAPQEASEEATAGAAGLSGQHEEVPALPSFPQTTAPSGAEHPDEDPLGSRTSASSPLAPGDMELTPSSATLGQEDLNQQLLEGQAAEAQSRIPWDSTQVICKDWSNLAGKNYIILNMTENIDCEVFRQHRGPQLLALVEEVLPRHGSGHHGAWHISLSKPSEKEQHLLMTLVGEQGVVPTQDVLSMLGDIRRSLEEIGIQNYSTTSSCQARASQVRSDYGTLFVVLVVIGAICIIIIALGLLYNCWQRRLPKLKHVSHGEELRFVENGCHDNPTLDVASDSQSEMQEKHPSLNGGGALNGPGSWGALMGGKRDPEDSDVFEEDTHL
UniProt Q9Y2G5: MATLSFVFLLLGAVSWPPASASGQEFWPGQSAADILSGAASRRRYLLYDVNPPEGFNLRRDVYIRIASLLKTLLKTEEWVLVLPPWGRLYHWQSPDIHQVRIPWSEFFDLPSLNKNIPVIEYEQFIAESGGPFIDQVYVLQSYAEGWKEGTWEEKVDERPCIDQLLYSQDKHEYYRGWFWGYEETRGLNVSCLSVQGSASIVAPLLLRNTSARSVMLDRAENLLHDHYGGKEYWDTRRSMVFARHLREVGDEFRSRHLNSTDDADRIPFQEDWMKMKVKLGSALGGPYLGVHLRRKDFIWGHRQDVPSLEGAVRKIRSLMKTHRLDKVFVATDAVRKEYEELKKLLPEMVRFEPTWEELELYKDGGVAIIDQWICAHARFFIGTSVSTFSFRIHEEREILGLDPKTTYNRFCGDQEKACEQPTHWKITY
UniProt Q06203, whole entry, looked up: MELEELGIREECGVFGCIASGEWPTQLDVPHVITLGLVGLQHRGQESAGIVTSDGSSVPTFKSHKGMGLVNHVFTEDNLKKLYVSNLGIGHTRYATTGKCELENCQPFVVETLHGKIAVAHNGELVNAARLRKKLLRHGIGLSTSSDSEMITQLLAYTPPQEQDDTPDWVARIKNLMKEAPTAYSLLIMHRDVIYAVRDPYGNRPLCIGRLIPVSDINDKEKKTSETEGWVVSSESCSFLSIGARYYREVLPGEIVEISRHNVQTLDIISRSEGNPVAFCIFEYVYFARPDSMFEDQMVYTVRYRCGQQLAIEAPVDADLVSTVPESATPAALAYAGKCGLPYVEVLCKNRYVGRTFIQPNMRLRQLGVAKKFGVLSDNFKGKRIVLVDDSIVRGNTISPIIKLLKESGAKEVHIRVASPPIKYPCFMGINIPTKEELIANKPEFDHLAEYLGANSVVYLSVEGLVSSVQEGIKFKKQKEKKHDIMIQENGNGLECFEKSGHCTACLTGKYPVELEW
UniProt O75334: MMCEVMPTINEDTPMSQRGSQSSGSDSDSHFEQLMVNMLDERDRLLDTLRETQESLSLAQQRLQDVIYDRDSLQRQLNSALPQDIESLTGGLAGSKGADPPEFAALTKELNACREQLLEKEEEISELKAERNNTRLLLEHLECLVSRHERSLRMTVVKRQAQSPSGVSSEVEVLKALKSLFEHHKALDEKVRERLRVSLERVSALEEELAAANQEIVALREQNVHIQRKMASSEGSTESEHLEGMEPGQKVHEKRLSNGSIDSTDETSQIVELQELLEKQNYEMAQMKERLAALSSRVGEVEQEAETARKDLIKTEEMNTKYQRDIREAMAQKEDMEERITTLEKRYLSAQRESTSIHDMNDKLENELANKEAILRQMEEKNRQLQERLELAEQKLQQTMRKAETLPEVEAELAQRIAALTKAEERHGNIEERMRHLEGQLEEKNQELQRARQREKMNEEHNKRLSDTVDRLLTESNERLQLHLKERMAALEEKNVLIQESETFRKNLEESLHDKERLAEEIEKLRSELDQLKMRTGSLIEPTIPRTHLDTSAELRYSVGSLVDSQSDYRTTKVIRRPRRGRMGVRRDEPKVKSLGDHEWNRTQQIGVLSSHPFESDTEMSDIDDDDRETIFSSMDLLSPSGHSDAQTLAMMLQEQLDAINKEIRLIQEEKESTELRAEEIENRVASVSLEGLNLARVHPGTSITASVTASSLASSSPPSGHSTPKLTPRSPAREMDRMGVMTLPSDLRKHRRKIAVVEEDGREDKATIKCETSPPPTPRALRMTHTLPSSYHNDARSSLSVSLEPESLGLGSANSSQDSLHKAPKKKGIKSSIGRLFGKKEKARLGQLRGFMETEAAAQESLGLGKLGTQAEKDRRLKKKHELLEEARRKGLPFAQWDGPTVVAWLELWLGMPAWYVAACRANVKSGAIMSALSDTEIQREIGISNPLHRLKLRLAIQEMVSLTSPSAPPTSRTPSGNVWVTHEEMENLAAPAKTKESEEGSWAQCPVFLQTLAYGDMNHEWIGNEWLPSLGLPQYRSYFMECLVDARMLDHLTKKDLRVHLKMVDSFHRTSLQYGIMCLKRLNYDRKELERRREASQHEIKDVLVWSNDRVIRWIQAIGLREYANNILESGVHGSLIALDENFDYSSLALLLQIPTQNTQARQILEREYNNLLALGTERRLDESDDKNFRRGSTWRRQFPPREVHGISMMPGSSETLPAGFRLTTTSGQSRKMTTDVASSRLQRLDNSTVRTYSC
UniProt Q96CD2: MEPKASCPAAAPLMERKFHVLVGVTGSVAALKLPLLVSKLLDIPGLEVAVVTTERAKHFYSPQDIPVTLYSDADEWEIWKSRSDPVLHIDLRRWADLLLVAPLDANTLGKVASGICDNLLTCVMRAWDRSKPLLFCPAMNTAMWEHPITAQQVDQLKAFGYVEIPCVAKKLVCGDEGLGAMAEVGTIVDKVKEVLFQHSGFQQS
UniProt O75817: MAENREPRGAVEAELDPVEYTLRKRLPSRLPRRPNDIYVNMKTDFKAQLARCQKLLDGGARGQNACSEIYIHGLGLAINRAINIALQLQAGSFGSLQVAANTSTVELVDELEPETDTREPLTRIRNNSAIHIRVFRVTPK
UniProt Q9BT43: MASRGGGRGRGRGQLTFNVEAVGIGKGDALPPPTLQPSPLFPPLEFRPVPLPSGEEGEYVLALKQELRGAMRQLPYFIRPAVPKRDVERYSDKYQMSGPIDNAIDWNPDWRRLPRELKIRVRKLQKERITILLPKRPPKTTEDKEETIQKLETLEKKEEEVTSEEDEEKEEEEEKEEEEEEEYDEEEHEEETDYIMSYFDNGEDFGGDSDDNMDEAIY
UniProt Q9NQ55: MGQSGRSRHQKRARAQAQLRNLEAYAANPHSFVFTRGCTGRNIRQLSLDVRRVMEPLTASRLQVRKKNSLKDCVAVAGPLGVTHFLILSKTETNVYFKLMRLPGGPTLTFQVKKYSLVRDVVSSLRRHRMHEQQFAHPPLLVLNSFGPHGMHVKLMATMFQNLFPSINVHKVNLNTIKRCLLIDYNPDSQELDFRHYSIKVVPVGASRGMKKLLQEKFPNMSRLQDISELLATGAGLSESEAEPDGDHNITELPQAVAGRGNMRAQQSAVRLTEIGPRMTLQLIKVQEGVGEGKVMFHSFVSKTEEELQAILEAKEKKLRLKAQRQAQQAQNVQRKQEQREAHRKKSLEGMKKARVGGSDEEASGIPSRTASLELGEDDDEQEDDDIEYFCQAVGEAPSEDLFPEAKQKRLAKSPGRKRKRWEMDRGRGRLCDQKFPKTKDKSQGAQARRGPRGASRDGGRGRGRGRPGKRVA
UniProt Q15063: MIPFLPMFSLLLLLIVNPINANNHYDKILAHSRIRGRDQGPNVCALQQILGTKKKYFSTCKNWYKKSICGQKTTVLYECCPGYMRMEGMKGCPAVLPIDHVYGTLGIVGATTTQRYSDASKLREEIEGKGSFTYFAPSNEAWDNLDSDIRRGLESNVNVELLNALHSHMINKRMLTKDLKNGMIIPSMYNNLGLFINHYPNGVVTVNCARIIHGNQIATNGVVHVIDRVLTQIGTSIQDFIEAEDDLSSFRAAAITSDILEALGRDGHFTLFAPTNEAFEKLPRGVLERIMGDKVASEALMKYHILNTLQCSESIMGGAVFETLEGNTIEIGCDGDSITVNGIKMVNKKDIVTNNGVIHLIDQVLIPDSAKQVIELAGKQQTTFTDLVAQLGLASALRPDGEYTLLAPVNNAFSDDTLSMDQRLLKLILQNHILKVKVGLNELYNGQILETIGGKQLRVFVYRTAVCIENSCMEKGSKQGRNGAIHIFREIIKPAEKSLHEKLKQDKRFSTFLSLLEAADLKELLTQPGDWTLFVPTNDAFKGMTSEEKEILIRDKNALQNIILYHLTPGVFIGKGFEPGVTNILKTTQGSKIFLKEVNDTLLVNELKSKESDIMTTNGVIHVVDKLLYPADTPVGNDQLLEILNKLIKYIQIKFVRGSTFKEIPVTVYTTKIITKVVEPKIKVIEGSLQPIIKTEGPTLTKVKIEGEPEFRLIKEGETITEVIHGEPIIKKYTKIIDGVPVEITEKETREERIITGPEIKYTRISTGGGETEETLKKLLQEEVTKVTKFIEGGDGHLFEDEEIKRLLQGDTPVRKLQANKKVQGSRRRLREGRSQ
UniProt P35813: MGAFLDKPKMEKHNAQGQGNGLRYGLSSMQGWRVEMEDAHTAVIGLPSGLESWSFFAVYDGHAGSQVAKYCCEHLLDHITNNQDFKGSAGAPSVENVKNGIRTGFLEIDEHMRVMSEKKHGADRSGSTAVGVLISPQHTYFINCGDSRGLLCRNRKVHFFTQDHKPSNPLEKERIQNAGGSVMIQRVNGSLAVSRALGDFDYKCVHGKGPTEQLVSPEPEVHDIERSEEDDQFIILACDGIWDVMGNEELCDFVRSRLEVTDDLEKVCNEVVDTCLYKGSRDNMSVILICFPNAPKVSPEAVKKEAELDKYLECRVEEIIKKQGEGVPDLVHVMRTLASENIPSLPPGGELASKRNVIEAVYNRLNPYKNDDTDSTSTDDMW

Columns and labels:
Experiment in all cases: log2 fold change, soluble protein after heating vs DMSO (PISA); higher = thermal stabilisation; K562 cells, 10 uM, 30 min; active = over 0.2 and 3.5 SD of the protein, either way, in both replicates (recomputed)
[1] = compound: CS(=O)(=O)c1ccc(-c2cnc(N)c(C(=O)Nc3ccccc3)n2)cc1
How it was run: (§1)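 Soluble protein was quantified by TMTpro 16plex LC-MS/MS after channel sums were equalised. It was obtained as the supernatant after 21,000xg for 90 min from pooled aliquots of K562 cells (2×10^6 cells/mL, 10 μM compound, 30 min) heated for 3 min across 48°C-58°C and extracted in PBS with 0.5% NP-40 at 4°C. Thermal stability values are relative to control samples and come from duplicates. They are given as log2 fold changes.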

crizotinib = compound: C[C@@H](Oc1cc(-c2cnn(C3CCNCC3)c2)cnc1N)c1c(Cl)ccc(F)c1Cl [crizotinib]
How it was run: as §1

[2] = compound: C[C@@H]1COCCN1C2=NC(=NC(=C2)C3(CC3)S(=O)(=O)C)C4=C5C=CNC5=CC=C4
How it was run: as §1

[3] = compound: C[C@H](C1=CC=C(C=C1)C(=O)NC2=C3C=CNC3=NC=C2)N
How it was run: as §1

duvelisib = compound: C[C@H](Nc1ncnc2nc[nH]c12)c1cc2cccc(Cl)c2c(=O)n1-c1ccccc1 [duvelisib]
How it was run: as §1

gandotinib = compound: Cc1cc(Nc2cc(CN3CCOCC3)c3nc(C)c(Cc4ccc(Cl)cc4F)n3n2)n[nH]1 [gandotinib]
How it was run: as §1

tozasertib = compound: Cc1cc(Nc2cc(N3CCN(C)CC3)nc(Sc3ccc(NC(=O)C4CC4)cc3)n2)n[nH]1 [tozasertib]
How it was run: as §1

[4] = compound: Cc1cc(SCc2sc(-c3ccc(C(F)(F)F)cc3)nc2C)ccc1OCC(=O)O
How it was run: as §1

doramapimod = compound: Cc1ccc(-n2nc(C(C)(C)C)cc2NC(=O)Nc2ccc(OCCN3CCOCC3)c3ccccc23)cc1 [doramapimod]
How it was run: as §1

ispinesib = compound: Cc1ccc(C(=O)N(CCCN)[C@@H](c2nc3cc(Cl)ccc3c(=O)n2Cc2ccccc2)C(C)C)cc1 [ispinesib]
How it was run: as §1

Measured: log2 fold change

POLR2H (UniProt P52434)
inactive: [1] 0.06 | crizotinib -0.052 | [2] 0.18 | [3] 0.048 | duvelisib 0.129 | gandotinib 0.086 | tozasertib -0.001 | [4] 0.094 | doramapimod 0.023 | ispinesib -0.069

POLE3 (UniProt Q9NRF9)
inactive: [1] -0.005 | crizotinib -0.017 | [2] 0.014 | [3] -0.031 | duvelisib 0.071 | gandotinib 0.019 | tozasertib -0.025 | [4] 0.08 | doramapimod -0.003 | ispinesib 0.102

POLG (UniProt P54098)
inactive: [1] -0.006 | crizotinib 0.05 | [2] -0.053 | [3] 0.047 | duvelisib 0.167 | gandotinib 0.011 | tozasertib 0.155 | [4] -0.036 | doramapimod -0.016 | ispinesib -0.167

PPIH (UniProt O43447)
inactive: [1] 0.025 | crizotinib -0.049 | [2] 0.028 | [3] -0.017 | duvelisib 0.026 | gandotinib -0.083 | tozasertib -0.016 | [4] 0.015 | doramapimod -0.016 | ispinesib 0.035

PLOD1 isoform 2 (UniProt Q02809)
inactive: [1] 0.043 | crizotinib 0.045 | [2] -0.126 | [3] 0.148 | duvelisib -0.052 | gandotinib 0.127 | tozasertib 0.027 | [4] 0.053 | doramapimod 0.074 | ispinesib -0.032

POGLUT2 (UniProt Q6UW63)
inactive: [1] 0.003 | crizotinib 0.015 | [2] -0.034 | [3] 0.062 | duvelisib -0.033 | gandotinib 0.044 | tozasertib -0.019 | [4] 0.026 | doramapimod 0.034 | ispinesib -0.026

PLEKHF2 (UniProt Q9H8W4)
inactive: [1] 0.016 | crizotinib -0.175 | [2] 0.119 | [3] -0.053 | duvelisib 0.025 | gandotinib -0.028 | tozasertib 0.003 | [4] 0.025 | doramapimod 0.067 | ispinesib -0.276

POTEF (UniProt A5A3E0)
inactive: [1] 0.004 | crizotinib 0.034 | [2] -0.011 | [3] 0 | duvelisib 0.115 | gandotinib 0.065 | tozasertib -0.007 | [4] -0.004 | doramapimod 0.005 | ispinesib 0.015

Retrieved one by one from the entries so far (2):
PLOD1 isoform 2 (UniProt Q02809)
inactive: [1] 0.043 | crizotinib 0.045 | [2] -0.126 | [3] 0.148 | duvelisib -0.052 | gandotinib 0.127 | tozasertib 0.027 | [4] 0.053 | doramapimod 0.074 | ispinesib -0.032

POLR2H (UniProt P52434)
inactive: [1] 0.06 | crizotinib -0.052 | [2] 0.18 | [3] 0.048 | duvelisib 0.129 | gandotinib 0.086 | tozasertib -0.001 | [4] 0.094 | doramapimod 0.023 | ispinesib -0.069

Additional records.

POLR3E (UniProt Q9NVU0)
inactive: [1] 0.122 | crizotinib 0.002 | [2] 0.004 | [3] 0.122 | duvelisib -0.047 | gandotinib -0.084 | tozasertib -0.019 | [4] 0.139 | doramapimod 0.066 | ispinesib -0.106

PODXL2 (UniProt Q9NZ53)
inactive: [1] -0.16 | crizotinib -0.024 | [2] -0.008 | [3] -0.003 | duvelisib 0.079 | gandotinib -0.07 | tozasertib 0.099 | [4] 0.014 | doramapimod 0.014 | ispinesib 0.007

PON2 (UniProt Q15165)
inactive: [1] 0.004 | crizotinib 0.033 | [2] -0.053 | [3] 0.031 | duvelisib 0.051 | gandotinib 0.02 | tozasertib 0.044 | [4] 0 | doramapimod 0.077 | ispinesib -0.073

PPA2 (UniProt Q9H2U2)
inactive: [1] 0.063 | crizotinib -0.014 | [2] 0.075 | [3] -0.062 | duvelisib 0.058 | gandotinib -0.006 | tozasertib -0.008 | [4] -0.014 | doramapimod -0.064 | ispinesib 0.051

POFUT2 (UniProt Q9Y2G5)
inactive: [1] 0.097 | crizotinib -0.015 | [2] -0.024 | [3] 0.146 | duvelisib -0.021 | gandotinib 0.027 | tozasertib 0.016 | [4] 0.07 | doramapimod -0.02 | ispinesib -0.035

PPAT (UniProt Q06203)
inactive: [1] 0.012 | crizotinib 0.041 | [2] 0.025 | [3] -0.045 | duvelisib 0.028 | gandotinib -0.003 | tozasertib 0.012 | [4] -0.047 | doramapimod -0.022 | ispinesib 0.028

PPFIA2 (UniProt O75334)
inactive: [1] 0.048 | crizotinib -0.102 | [2] -0.016 | [3] 0.228 | duvelisib 0.031 | gandotinib 0.021 | tozasertib -0.11 | [4] 0.114 | doramapimod 0.063 | ispinesib -0.066

PPIP5K2 (UniProt O43314)
inactive: [1] 0.048 | crizotinib 0.013 | [2] 0.049 | [3] -0.054 | duvelisib 0.036 | gandotinib -0.014 | tozasertib -0.016 | [4] -0.012 | doramapimod -0.018 | ispinesib 0.074

PPCDC (UniProt Q96CD2)
inactive: [1] 0.048 | crizotinib 0.098 | [2] 0.091 | [3] -0.1 | duvelisib 0.1 | gandotinib -0.093 | tozasertib 0.045 | [4] 0.055 | doramapimod 0.006 | ispinesib 0.031

PPIA (UniProt P62937)
inactive: [1] 0.014 | crizotinib 0.034 | [2] 0.078 | [3] -0.034 | duvelisib 0.012 | gandotinib -0.005 | tozasertib -0.009 | [4] -0.008 | doramapimod -0.001 | ispinesib 0.066

PLS3 (UniProt P13797)
inactive: [1] 0.049 | crizotinib 0.049 | [2] 0.05 | [3] -0.021 | duvelisib 0.018 | gandotinib -0.096 | tozasertib -0.028 | [4] 0.002 | doramapimod -0.021 | ispinesib -0.017

POP7 (UniProt O75817)
inactive: [1] -0.076 | crizotinib -0.017 | [2] 0.169 | [3] 0.003 | duvelisib -0.039 | gandotinib 0.244 | tozasertib 0.01 | [4] 0.022 | doramapimod 0.038 | ispinesib -0.186

POLD2 (UniProt P49005)
inactive: [1] -0.016 | crizotinib -0.047 | [2] 0.019 | [3] -0.055 | duvelisib -0.017 | gandotinib -0.028 | tozasertib -0.008 | [4] 0.042 | doramapimod -0.04 | ispinesib -0.031

POLR3GL (UniProt Q9BT43)
inactive: [1] 0.076

PPAN isoform 3 (UniProt Q9NQ55)
inactive: [1] 0.023 | crizotinib 0.176 | [2] -0.304 | [3] 0.373 | duvelisib -0.192 | gandotinib 0.035 | tozasertib 0.151 | [4] 0.121 | doramapimod 0.312 | ispinesib 0.161

PMF1 (UniProt Q6P1K2)
inactive: [1] 0.016 | crizotinib 0.119 | [2] 0.013 | [3] -0.005 | duvelisib 0.103 | gandotinib -0.007 | tozasertib 0.052 | [4] 0.083 | doramapimod -0.002 | ispinesib -0.057

POSTN (UniProt Q15063)
inactive: [1] -0.001 | crizotinib 0.001 | [2] 0.104 | [3] 0.102 | duvelisib 0.032 | gandotinib -0.243 | tozasertib 0.027 | [4] 0.099 | doramapimod -0.163 | ispinesib 0.015

POLDIP2 (UniProt Q9Y2S7)
inactive: [1] 0.009 | crizotinib 0.169 | [2] 0.099 | [3] -0.101 | duvelisib 0.071 | gandotinib -0.043 | tozasertib 0.015 | [4] 0.007 | doramapimod -0.051 | ispinesib 0.082

PPM1A isoform 3 (UniProt P35813)
inactive: [1] 0.015 | crizotinib 0.022 | [2] 0.091 | [3] 0.009 | duvelisib 0.064 | gandotinib -0.099 | tozasertib -0.028 | [4] 0.014 | doramapimod -0.026 | ispinesib 0.003

PNISR (UniProt Q8TF01)
inactive: [1] 0.005 | crizotinib 0.016 | [2] 0.029 | [3] -0.059 | duvelisib -0.001 | gandotinib 0.01 | tozasertib -0.047 | [4] -0.037 | doramapimod -0.051 | ispinesib 0.104

POLR3F (UniProt Q9H1D9)
inactive: [1] 0.012 | crizotinib 0.069 | [2] 0.014 | [3] 0.003 | duvelisib 0.008 | gandotinib -0.01 | tozasertib -0.01 | [4] 0.03 | doramapimod -0.014 | ispinesib 0.089

PLRG1 (UniProt O43660)
inactive: [1] -0.06 | crizotinib 0.021 | [2] -0.073 | [3] 0.038 | duvelisib -0.062 | gandotinib 0.016 | tozasertib -0.04 | [4] -0.082 | doramapimod -0.01 | ispinesib 0.002
